This note sets out measurements from paper PMC4861493, “Functional Evolution in Orthologous Cell-encoded RNA-dependent RNA Polymerases*” (The Journal of Biological Chemistry, 2016).

Data set [1] concerns the target T1, QDE-1Tte catalytic fragment (Thielavia terrestris) (UniProt G2R911).
T1 sequence (looked up, limits assumed): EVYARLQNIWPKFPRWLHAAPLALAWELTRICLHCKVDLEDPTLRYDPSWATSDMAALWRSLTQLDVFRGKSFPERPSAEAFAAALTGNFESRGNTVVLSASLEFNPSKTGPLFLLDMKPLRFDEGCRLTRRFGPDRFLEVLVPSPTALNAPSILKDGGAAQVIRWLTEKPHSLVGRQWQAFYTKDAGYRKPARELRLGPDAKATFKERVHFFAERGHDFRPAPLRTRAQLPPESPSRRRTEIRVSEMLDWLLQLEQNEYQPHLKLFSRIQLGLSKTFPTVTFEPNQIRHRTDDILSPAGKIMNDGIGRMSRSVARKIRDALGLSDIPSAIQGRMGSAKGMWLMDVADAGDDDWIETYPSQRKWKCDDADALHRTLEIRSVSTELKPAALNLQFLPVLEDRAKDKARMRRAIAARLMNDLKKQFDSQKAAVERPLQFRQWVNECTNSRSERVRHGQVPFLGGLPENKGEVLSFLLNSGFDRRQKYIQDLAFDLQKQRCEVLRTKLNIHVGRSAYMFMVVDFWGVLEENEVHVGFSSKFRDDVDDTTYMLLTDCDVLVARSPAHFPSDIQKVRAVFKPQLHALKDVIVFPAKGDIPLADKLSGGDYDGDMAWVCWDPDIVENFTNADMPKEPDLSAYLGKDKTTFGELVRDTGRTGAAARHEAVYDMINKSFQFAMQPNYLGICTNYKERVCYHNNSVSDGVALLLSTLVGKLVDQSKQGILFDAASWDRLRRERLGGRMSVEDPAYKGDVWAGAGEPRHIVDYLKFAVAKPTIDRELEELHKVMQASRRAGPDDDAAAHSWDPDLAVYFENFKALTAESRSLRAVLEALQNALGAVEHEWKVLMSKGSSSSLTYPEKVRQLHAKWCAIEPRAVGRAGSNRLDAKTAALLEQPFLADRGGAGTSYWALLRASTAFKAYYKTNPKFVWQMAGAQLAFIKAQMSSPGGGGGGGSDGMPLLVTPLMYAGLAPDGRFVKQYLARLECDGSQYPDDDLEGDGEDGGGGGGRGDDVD
As to the kind of experiment: negative-stain EM. To be noted: 5 mM Mg2+ (dilution buffer), 1.3 uM protein, 1.7 uM DNA, ssDNA density not unambiguously assigned at 20 A; recombinant protein; protein details: His tag, TEV cleavage site; single-stranded DNA.

Data set [2] addresses T1, QDE-1Tte catalytic fragment (Thielavia terrestris). The data set is described as follows: filter binding. The conditions noted are these: 2 mM Mg2+, value derived from '1.7 uM, ~10-fold higher than the apparent Kd', exact Kd only in Fig. 5; Filter binding: 50 mM HEPES-NaOH pH 7.8, 0.1 mM EDTA, 2% (v/v) Triton X-100, 100 mM NH4OAc, 2 mM MgCl2, 1 uM protein, 0.03-10 uM ssDNA, 10 min at 20 C; recombinant protein; protein details: His tag, TEV cleavage site; label: 5'-32P; single-stranded DNA.

The target of data set [3] is T2, QDE-1Ncr catalytic fragment (QDE-1ΔN) (Neurospora crassa) (UniProt Q1K6C4).
T2 sequence (looked up, limits assumed): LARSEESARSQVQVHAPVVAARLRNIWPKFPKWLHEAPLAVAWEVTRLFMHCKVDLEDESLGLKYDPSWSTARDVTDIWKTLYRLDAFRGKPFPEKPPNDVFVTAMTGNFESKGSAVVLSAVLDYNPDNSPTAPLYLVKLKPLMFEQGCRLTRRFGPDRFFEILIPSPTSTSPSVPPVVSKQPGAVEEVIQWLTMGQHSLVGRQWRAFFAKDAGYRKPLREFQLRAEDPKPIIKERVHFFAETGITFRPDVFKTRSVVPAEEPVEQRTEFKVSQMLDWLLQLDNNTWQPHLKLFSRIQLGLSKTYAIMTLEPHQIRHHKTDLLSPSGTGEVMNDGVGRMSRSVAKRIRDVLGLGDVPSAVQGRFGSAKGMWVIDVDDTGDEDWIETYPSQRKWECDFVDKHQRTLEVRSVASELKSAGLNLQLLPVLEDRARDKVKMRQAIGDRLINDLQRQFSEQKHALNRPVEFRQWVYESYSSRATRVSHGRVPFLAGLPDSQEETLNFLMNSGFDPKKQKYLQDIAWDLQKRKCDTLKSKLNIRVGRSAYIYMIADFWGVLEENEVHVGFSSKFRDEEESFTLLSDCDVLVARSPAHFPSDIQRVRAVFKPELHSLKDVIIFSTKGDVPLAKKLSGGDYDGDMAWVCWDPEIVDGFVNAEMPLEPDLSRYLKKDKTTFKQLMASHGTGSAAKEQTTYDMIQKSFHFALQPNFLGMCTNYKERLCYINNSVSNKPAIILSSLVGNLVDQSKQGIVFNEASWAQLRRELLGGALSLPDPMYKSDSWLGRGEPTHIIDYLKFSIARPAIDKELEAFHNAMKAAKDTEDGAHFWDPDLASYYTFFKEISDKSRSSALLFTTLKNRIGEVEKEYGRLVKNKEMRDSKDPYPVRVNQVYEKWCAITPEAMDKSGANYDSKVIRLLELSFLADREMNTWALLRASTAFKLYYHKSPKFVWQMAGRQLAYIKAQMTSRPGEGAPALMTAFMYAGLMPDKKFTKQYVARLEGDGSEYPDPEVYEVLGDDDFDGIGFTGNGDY
As to the kind of experiment: filter binding. The conditions noted are these: 2 mM Mg2+, apparent Kd determined but value not in the text; Filter binding: 50 mM HEPES-NaOH pH 7.8, 0.1 mM EDTA, 2% (v/v) Triton X-100, 100 mM NH4OAc, 2 mM MgCl2, 1 uM protein, 0.03-10 uM ssDNA, 10 min at 20 C; recombinant protein; protein details: His tag; label: 5'-32P; single-stranded DNA.

pKd: −log10 of the molar value. The exact form of at least one protein or probe is not confirmed. For part of these data: At least one verdict rests on a figure or table, not on a statement of the authors. Protein sequences can lack the tags named with them.

As for “CCTTAATTGTATAG [14-nt ssDNA oligonucleotide (EM)]”, the binding result in data set [1] is given as “binds”.

As usually defined, the pKd is the negative decadic logarithm of the Kd, by convention in mol/L. In the case of “CTTACTTGTATGGACATT [18-nt ssDNA oligonucleotide]”, the pKd in data set [2] is 6.77. Moreover, in data set [3], the binding result was “binds”.
